Binding data for 10 molecules are collected here from article PMC8278045.

Sequences of proteins named here, by UniProt entry; tags and fusion partners are left off. A change or cut given only in a name is not applied to a line headed by its entry.
UniProt Q31KS4: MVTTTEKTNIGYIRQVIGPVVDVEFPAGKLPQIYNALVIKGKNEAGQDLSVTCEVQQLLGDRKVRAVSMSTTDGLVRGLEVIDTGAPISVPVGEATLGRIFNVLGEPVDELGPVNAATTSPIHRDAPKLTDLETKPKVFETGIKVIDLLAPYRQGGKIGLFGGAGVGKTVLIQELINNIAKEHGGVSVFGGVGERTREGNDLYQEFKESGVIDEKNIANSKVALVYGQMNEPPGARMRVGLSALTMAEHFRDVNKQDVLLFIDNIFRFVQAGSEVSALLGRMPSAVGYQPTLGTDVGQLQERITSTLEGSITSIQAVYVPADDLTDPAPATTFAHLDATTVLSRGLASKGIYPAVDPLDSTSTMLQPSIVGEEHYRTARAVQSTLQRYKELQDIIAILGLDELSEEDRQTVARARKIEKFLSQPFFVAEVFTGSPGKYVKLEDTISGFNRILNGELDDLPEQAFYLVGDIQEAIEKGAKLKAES
UniProt Q31NL7: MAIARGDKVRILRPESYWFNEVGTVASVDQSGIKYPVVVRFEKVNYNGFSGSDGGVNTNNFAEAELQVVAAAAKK
UniProt Q31NV8: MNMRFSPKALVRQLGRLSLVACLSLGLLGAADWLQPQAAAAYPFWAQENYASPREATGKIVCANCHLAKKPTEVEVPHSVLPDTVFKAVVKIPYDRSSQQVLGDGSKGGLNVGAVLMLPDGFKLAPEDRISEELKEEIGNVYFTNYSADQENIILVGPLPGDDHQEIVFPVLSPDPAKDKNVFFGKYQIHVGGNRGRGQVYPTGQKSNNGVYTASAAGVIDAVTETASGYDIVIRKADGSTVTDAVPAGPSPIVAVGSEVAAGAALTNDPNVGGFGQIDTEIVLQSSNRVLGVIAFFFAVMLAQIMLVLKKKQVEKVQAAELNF
UniProt P31094: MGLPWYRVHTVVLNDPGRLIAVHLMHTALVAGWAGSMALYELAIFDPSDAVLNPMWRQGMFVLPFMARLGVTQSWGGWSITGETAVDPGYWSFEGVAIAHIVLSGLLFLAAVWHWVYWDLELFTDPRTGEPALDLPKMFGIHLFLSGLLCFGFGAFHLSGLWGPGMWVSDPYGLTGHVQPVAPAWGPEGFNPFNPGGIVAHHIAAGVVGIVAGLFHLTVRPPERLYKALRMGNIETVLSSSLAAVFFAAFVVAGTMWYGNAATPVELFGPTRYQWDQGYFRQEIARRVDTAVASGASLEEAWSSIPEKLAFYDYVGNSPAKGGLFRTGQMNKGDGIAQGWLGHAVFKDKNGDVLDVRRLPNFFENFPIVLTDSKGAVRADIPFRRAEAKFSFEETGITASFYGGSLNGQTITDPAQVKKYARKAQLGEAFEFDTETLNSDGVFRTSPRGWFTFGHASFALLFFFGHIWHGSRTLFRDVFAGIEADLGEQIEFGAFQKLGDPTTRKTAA
UniProt Q31M07: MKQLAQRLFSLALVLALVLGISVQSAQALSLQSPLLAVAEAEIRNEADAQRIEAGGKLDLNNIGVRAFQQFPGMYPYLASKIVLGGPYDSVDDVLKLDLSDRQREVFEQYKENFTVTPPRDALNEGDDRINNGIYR
UniProt Q31NJ6: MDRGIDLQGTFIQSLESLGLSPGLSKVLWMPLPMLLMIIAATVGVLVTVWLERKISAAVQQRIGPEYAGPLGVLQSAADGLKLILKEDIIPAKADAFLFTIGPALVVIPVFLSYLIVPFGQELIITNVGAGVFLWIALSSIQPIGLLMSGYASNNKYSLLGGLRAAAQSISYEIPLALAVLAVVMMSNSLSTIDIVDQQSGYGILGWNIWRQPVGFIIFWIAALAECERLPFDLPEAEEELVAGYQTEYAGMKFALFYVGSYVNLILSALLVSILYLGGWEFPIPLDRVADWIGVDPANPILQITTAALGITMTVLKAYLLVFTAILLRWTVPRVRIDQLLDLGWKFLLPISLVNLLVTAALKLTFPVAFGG
UniProt P39660: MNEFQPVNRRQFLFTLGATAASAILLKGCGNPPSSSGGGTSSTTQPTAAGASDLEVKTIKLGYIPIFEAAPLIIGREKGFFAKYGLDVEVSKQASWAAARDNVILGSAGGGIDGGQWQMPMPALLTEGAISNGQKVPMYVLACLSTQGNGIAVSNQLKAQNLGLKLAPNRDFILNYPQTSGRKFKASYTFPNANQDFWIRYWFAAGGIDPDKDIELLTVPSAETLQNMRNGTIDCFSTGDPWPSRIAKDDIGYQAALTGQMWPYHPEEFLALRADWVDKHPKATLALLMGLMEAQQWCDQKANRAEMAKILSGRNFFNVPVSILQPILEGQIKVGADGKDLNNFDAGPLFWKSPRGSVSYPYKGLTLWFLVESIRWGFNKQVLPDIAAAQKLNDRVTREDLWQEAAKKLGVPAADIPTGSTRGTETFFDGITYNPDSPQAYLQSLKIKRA

These are yes or no findings as the source states them, for the method shown. Binding seen in cells or lysates may run through a third protein. These calls come from enrichment with a bait or labelling near it, and not all partners need be listed.

Common to all, as to assay: affinity purification with mass spectrometry; GFP pull-down (µMACS/MultiMACS GFP Isolation Kit beads) from thylakoid membranes of GFP-labelled Syn7942 strains solubilised with 1% digitonin; label-free LC-MS/MS, abundances normalised to GFP, WT strain as control, triplicates
In assay [1] the target is AtpB (β) of ATPase labelled with enhanced GFP (ATPase–GFP) (Synechococcus elongatus PCC 7942) (UniProt Q31KS4).
For assay [2], the target named is PsaE of Photosystem I labelled with enhanced GFP (PSI–GFP) (Synechococcus elongatus PCC 7942) (UniProt Q31NL7).
In assay [3] the target is PetA of Cytochrome b6f labelled with enhanced GFP (Cyt b6f–GFP) (Synechococcus elongatus PCC 7942) (UniProt Q31NV8).
Assay [4] has as its target PsbB (CP47) of Photosystem II labelled with enhanced GFP (PSII–GFP) (Synechococcus elongatus PCC 7942) (UniProt P31094).

For PsbU (from UniProt Q31M07), the binding result in assay [1], in assay [2] and in assay [3] was “binds” each time.

In the case of NdhA (from UniProt Q31NJ6 1-372), in assay [2], the binding result is “binds”.

For the molecule “bicarbonate transporter subunit CmpA (from UniProt P39660)”, in assay [2], the binding entry was “binds”.

B1: chromosome partition protein Smc (protein, UniProt Q31LJ4 1-1195)
chain: MVYIKQIELSHFKSFGGTTSLPLLPEFTVVTGPNGSGKSNILDALLFALGLSSSKGMRADRLPDLVNSTYASRSRSTVETLVTVTFALDDWQPEAEETEEGEGTGLQPGMAEWTVSRKLRVTPSGTYTSTYAMNGEACTLQQLHEQLSRLRIYPEGYNVVLQGDVTNIISMSPRDRRQIIDELAGVAQFDRKIEQAKGKLEAVKEREDRCRIVEQELIEQRDRLAKDREKAQKYQALRQEQATKQSWEAVLRWRAGQRQVQALQRSLAQLATDAATDQQTQQTLEQQIQQTEATLDRLNQRVKALGEEELLKLQAALAQQEAEQRQSQRQQQELVESQTQTQQQIQALLQTQAQLQTEGQQQAEQARTLQTTIAQTLQPQYQQALEQVEAARQSAHALAAQSQDWVTRQTSLRQQADAIAAQVEPQRAEQAQLQERQTQLQQQLEATQSALVTVTAELETETEQAEGDRAALSQAEAAVVTAADQLVRLEEELQIQQETRDRLLKEQRDKQRQLDRQESLRQAMQETQGTAAARLILDTGLPGVHGLVAQLGRVEPRYQLALEVAAGGRLGYLVVDDDGVASAGIELLKQKKAGRITFLPLNRIRAGKQPEIPRWQQPEGLVDLAIALVDCDDRYREVFKFVLGGTVVFERLDQARRYMGQYRIVTLDGELLETSGAMTGGSIARRSGGLSFGSPDSGESAEVRAIRDRLEQLEVILDRSELQILNLQAAIKDAASTLSDRRQQQREQQLTVQQRQQTLQRLQQQQQQLNAELQQRQQQASQAQARLAALALELPAALKQLKTLRQALAELEDSPIHGEWQQRQTLLQQQEALLQQQETALRQAEQQLQQLQTDQKRLQERAIAAQTQVSQLRQQQGEQLNRLAQLDEQQRQQATAIAQLQQRQAQLEAQLGQEKVDRDRTERQLQEQRSQRQNLVWQQEKRQQQQQELQQQLTDLEVQLQAEQQELPQPLPDIPEMVQQQGIEALQHELRSLAKRIQAMEPVNMLALEEYERTQARLEELSEKLTTIEAERTELLLRIENFTTLRRRAFMESFEAIDRNFQEIFAHLSDGDGSLQLDNPEDPFSSGLNLIAHPKGKPVRRLASMSGGEKSLTALSFIFALQRYRPSPFYALDEVDSFLDGANVERLARVIRQQAQAAQFIVVSHRRPMIEAAERTIGVTQARGAHTQVLGIPQP
On to B1, for which the binding result in assay [2] was “binds”.

B2: NdhN (protein, UniProt Q31L05 1-158)
chain: MALITTGSKFLRALEQEGALAVYAPLEGGYEGRYLRRLRSKGYSALTYSARGLGDPAQFLMDIHGVRPPHLGKQTIGNEAAVGRVEYVLPLVGYPLQNLPANAKGLVLWLLEGHVLSPQELSYFVTLPQAEPRLKVVIEMGGDRGFSWQPLAAVAEAA
B2: in assay [2], the binding result is listed as “binds”.

B3: PetM (peptide, UniProt Q31KG3 1-37)
chain: MAGEIFGTAFLFIVLVPVGLALGAFLLKVQGVQKAEK
Turning to B3, the binding entry in assay [4], in assay [1] and in assay [2] was “binds” in each case.

B4: PSI assembly protein Ycf4 (protein, UniProt Q31QI3 1-188)
chain: MPSPVATVETDSLQQPILGSRRPSNYFWAIAVSVGGTGLLLAGLSSYLQVNLLPFSEPTRLAFLPQGLVMGLYGIAAILLASYLWFVISLDVGGGYNAFDRKTQKATIFRWGFPGKNRRVEITYPLSDIQAVRVDIKEGLNPKRALYLKVKGRGDVPLTRVGQPLPLTELESQGAELARFLAVPLEGL
B4: in assay [4], the binding entry is on record as “binds”.

B5: NdhM (protein, UniProt Q31LQ7 1-110)
chain: MLLKSTTRHIRIFTAEIEGNELQPSDTVLTLDVDPDNEFNWNEEALQKVYRQFDDLVESYAGQELSEYNLRRIGSELEVLLRQMLQAGEISYNLNCRVLNYSMGVPQAVV
On to B5, for which the binding result in assay [2] is “binds”.

B6: chaperon protein DnaK3 (protein, UniProt P50022 1-749)
chain: MGRVVGIDLGTTNSVIAVMEGGKPMVIANAEGVRTTPSVVGVSKTGERLVGELARRQLVLNPRNTFANIKRFIGRRYDELTDESKRVPYTVRRDPEGNVRIVCPQLSREFAPEEVAAMILRKLAEEASRYLGEPVTGAVITVPAYFNDSQRQATRDAGRIAGLEVKRILNEPTAASLAYGLDRRDNQTILVFDLGGGTFDVSVLKVGNGVFEVKATSGDTQLGGNDFDRRIVDWLAEQFLEAEGIDLRRDRQALQRLIEAAEKAKIELSGVSVTDINLPFITATEDEPKHLETRLTRSEFEALCEDLLERMMRPLRRALKDARLQPQDIDEVVLVGGSTRMPMVQQLVRSLIGREPNQNVNPDEVVAIGAAIQAGILAGEVKDILLLDVTPLSLGLETIGGVMKKLIPRNTAIPVRRSDIFSTAENNQTMVEIHILQGERQLAEGNKSLGRFKLTGIPPAPRGVPQVQVSFDIDANGILQVSALDKTTGREQTVTIQGASTLSQEEVKRMMKDAELYAQQDRQLKARIEKRNRAQTLIAQSERRLREISLDFGLYFAESKRRRIESTIRELKDYLERQDDRGLDLALAELQDALFDLNQETAARLRDEEGEGFFEPLKQTFASLRGDGNRDFERSWDDRGGDRWDADPWDRSRRSTPSYGYDDRRSPVSDPYRGERWVEEQTSMSRREPVRDRNGGNGSVRPEPAPRRGRPTWEEDQPPRRDRSSQPPAKPASGRRWNDGWDDDDDEWF
Regarding B6, the binding entry in assay [1] is given as “binds”.

B7: PsbV (protein, UniProt Q31LM9 31-167)
chain: AELTAETRTVKLNPQGDNVTLSLKQVAEGKQLFAYACGQCHVGGITKTDPNVGLDPEALALATPPRDSVESLVDYLHNPTTYDGEREISELHPSTKSTDIFPKMRNLTEDDLVAISGHILLQPKIVGTKWGGGKIYY
Take B7: the binding result in assay [1], in assay [2] and in assay [3] was “binds” each time.
